Results are given in words; binding and its absence hold for the method and conditions named. Some results given as binding are weak or reduced against the parent protein; the word gives no strength.
Assays:
[1] = molecular target: human CD137 (4-1BB) expressed on cells (human) (UniProt Q07011); experiment: flow cytometry, PMA-ionomycin stimulated CEM cells, detected with anti-mouse CD8
[2] = molecular target: cynomolgus monkey CD137 expressed on PBMC (cynomolgus monkey) (UniProt A9YYE7); experiment: flow cytometry, PMA-ionomycin stimulated cynomolgus PBMC, detected with anti-mouse CD8
[3] = molecular target: human CD137 (4-1BB) expressed on cells (human) (UniProt Q07011); experiment: Flow cytometry on PMA-ionomycin stimulated human CEM cells, detection with PE anti-mouse CD8, % positive cells
[4] = molecular target: cynomolgus monkey CD137 expressed on PBMC (cynomolgus monkey) (UniProt A9YYE7); experiment: Flow cytometry on PMA-ionomycin stimulated cynomolgus monkey PBMC, detection with PE anti-mouse CD8, % positive cells

Protein sequences, listed by entry. Tags and fused reporters are not part of them. Lines headed by an entry give the natural chain unless they say otherwise; changes in a name come on top. Residues count along the entry.
UniProt Q07011, residues 24-255: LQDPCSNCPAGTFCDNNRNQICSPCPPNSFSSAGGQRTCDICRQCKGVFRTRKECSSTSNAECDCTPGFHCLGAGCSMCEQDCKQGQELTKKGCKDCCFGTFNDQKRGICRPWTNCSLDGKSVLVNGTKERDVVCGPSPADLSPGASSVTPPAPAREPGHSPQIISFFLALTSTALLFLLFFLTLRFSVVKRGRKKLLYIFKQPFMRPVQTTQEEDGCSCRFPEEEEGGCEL
UniProt A9YYE7, residues 24-254: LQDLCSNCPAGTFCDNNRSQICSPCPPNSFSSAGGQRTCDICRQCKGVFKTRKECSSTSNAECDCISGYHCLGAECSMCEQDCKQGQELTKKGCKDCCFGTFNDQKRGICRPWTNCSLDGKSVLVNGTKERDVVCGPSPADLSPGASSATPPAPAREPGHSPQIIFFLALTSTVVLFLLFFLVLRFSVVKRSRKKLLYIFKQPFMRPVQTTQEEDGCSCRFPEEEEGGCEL
UniProt P41273: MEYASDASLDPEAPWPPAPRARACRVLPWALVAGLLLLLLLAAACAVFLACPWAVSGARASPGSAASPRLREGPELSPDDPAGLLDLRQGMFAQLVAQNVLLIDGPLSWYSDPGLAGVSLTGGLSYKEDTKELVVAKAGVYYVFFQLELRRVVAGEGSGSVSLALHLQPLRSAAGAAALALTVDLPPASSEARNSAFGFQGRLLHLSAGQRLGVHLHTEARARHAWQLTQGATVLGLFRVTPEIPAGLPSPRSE

- binding [1]: binds
- binding [2]: binds
- binding [3]: binds
- binding [4]: binds
Substance: Human CD137L-CD8 fusion protein (from UniProt P41273 50-254; P01731 28-196) (ligand)
